The results in this text go back to patent US20250269048A1 (BIVICTRIX, published 2025).

In test [1] the target is T1, human CD7 on cells (human, UniProt P09564 26-240).
T1 sequence (looked up): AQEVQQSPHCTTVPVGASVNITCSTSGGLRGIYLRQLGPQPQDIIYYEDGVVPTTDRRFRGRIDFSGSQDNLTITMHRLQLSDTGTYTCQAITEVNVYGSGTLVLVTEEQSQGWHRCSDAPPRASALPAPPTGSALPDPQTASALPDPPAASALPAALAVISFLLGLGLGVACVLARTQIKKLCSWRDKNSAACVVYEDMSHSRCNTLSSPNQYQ
In words: flow cytometry, bi-Fab at 10 nM (n=2) then PE mouse anti-human IgG Fab; Jurkat cells and healthy-donor T cells (both CD33-/CD7+).

Test [2] addresses T1, human CD7 on cells. In words: flow cytometry (PE, geomean), bi-Fab then PE mouse anti-human IgG Fab; Jurkat cells and healthy-donor T cells (both CD33-/CD7+); 10 nM by legend paragraph 112, no concentration on the sheet.

No constants are given. Whether binding was seen depends on the method and setting. Some entries that bind do so weakly or less than the wild type.

B1: BVX152 (bispecific antibody)
heavy: QVQLQESGAELVKPGASVKLSCKASGYTFTSYWMHWVKQRPGQGLEWIGKINPSNGKTNYNEKFKSKATLTVDKSSSTAYMQLSSLTSEDSAVYYCARGGVYYDLYYAALDYWGQGTTVTVSSASTKGPSVFPLAPSSKSTSGGTAALGCLVKDYFPEPVTVSWNSGALTSGVHTFPAVLQSSGLYSLSSVVTVPSSSLGTQTYCCNVNHKPSNTKVDKKVEPKSCDKT
light: DIELTQSPATLSVTPGDSVSLSCRASQSISNNLHWYQQKSHESPRLLIKSASQSISGIPSRFSGSGSGTDFTLSINSVETEDFGMYFCQQSNSWPYTFGGGTKLEIKRTVAAPSVFIFPPSDEQLKSGTASVVCLLNNFYPREAKVQWKVDNALQSGNSQESVTEQDSKDSTYSLSSTLTLSKADYEKHKVYACEVTHQGLSSPVTKSFNRGEC
VH: EVQLVQSGAEVKKPGSSVKVSCKASGYTITDSNIHWVRQAPGQSLEWIGYIYPYNGGTDYNQKFKNRATLTVDNPTNTAYMELSSLRSEDTAFYYCVNGNPYLAAWGQGTLVTVSS
VL: DIQLTQSPSTLSASVGDRVTIICRASESLDNYGIRFLTWFQQKPGKAPKLLMYAASNQGSGVPSRFSGSGSGTEFTLTISSLQPDDFATYYCQQTKEVPWSFGQGTKLEIK
notes: bi-Fab; also called CD33-PP-7/CD7-PP-8
Take B1: the binding result with human CD7 on cells [1] and with human CD7 on cells [2] was “binds” in each case.
